Measurements: patent US10398672B2, “Methods and compositions for targeting cancer stem cells” (Whitehead Institute for Biomedical Research, priority 2014, dated 2019)
For at least one compound, name, drawing or mass did not settle the structure.

Legend:
NAMEC cells [1] = assay type: cell-based, human
NAMEC cells [2] = assay type: cell-based, human; remark: listed apart in the source
NAMEC cells [3] = assay type: cell-based, human; remark: listed apart in the source
NAMEC cells [4] = assay type: cell-based, human; remark: listed apart in the source
NAMEC cells [5] = assay type: cell-based, human; remark: listed apart in the source
NAMEC-Ras tumors = experiment: Treatment of NAMEC-Ras tumors with forskolin in NOD/SCID mice, H&E histology; assay type: in vivo, mouse; conditions: 5 mg/kg daily intraperitoneally for 2 weeks
E-cadherin/CDH1 promoter = assay type: cell-based, human

## C=C[C@@]1(C)CC(=O)[C@]2(O)[C@@]3(C)[C@@H](O)CCC(C)(C)[C@@H]3[C@H](O)[C@H](OC(C)=O)[C@@]2(C)O1 [forskolin]
NAMEC cells [1]
  invasive properties of NAMEC cells: loss
  migratory properties of NAMEC cells: loss
NAMEC cells [2]
  intracellular cAMP concentration in NAMEC cells: elevated
NAMEC cells [3]
  mammosphere-forming ability: complete loss
NAMEC cells [4]
  mesenchymal marker fibronectin by fluorescence microscopy: loss of the mesenchymal marker, fibronectin
NAMEC cells [4]; NAMEC cells, 100 μg/ml cholera toxin or 10 μM forskolin over 12 days
  junctional E-cadherin by fluorescent microscopy: expressed junctional E-cadherin
NAMEC cells [4]; NAMEC cells, 100 μg/ml cholera toxin or 10 μM forskolin over 12 days, media replenished every other day
  cell morphology after treatment: cobblestone-like epithelial morphology
NAMEC cells [5]
  E-cadherin expression compared to untreated NAMEC cells: gain of E-cadherin expression
  relative expression of mesenchymal markers compared to untreated NAMEC cells: decrease
NAMEC-Ras tumors
  differentiation in tumors versus DMSO: regions containing more differentiation
  necrosis in tumors versus DMSO: higher levels of necrosis
  tumor histological features versus DMSO: carcinoma-like properties with very few sarcomatoid regions remaining
E-cadherin/CDH1 promoter
  ability to induce luciferase expression (validation of the screen): induce luciferase expression
